Source: PubChem BioAssay AID1159578 (Peter MacCallum Cancer Centre, 2015)
Purpose: 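Genome-wide hunt for genes controlling movement of lymphatic endothelial cells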 (primary screen). Cell system: human lymphatic endothelial cells. Reagent: siRNA pool against human genes, 40 nM. Time to read-out: 48 h after transfection. Read-out: 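Cells stained with dye and imaged after a scratch; covered wound area and nuclei counted, duplicates averaged, migration set against mock wells and turned into a robust z-score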. Scale: migration robust z-score: higher = faster migration into the scratch; nuclei per well: higher = more cells in the well. Active means: 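Pools averaging fewer than 3300 nuclei are never called; remaining pools count as changed when migration robust z lies outside -2 to 2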. Calls: active = migration changed; inactive = no migration change, or too few cells.
Shown is a random part of about 18,000 reagents tested. About 1,030 of them (5.7%) count as active. 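Inactive calls also include pools with fewer than 3300 nuclei, whose migration was not assessed.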 The raw values are shown without normalisation. Further read-outs or replicates are left out here. No sequences are given here.

| gene | PubChem SID | migration robust z-score | nuclei per well, duplicate mean | Call |
| --- | --- | --- | --- | --- |
| DUSP3 | SID255349395 | -0.36 | 5204 | inactive |
| IL34 | SID255363280 | 0.25 | 6518 | inactive |
| METTL27 | SID255363615 | -0.18 | 5416 | inactive |
| PPP1R26 | SID255354614 | -0.83 | 4233 | inactive |
| CAPN3 | SID255348686 | 0.26 | 5264 | inactive |
| RSBN1 | SID255358120 | 0.18 | 6253 | inactive |
| MPZL2 | SID255354893 | 0.66 | 5615 | inactive |
| CDK2 | SID255348837 | 0.47 | 5114 | inactive |
| NPM2 | SID255355020 | -1.6 | 4170 | inactive |
| OSGIN1 | SID255357237 | -0.42 | 6221 | inactive |
| UNCX | SID255365075 | -2.29 | 4396 | active |
| C3orf36 | SID255360652 | 0.13 | 4827 | inactive |
| NUB1 | SID255357845 | 1.48 | 6778 | inactive |
| PLD1 | SID255351623 | 0.34 | 5732 | inactive |
| PAOX | SID255363979 | 1.19 | 5804 | inactive |
| SETD3 | SID255361238 | 0.96 | 5774 | inactive |
| LRATD1 | SID255363493 | -0.17 | 6816 | inactive |
| FXYD1 | SID255351633 | -0.44 | 3559 | inactive |
| AKAP5 | SID255354319 | 0.36 | 6366 | inactive |
| GFI1 | SID255349873 | 1.5 | 5972 | inactive |
| SYNCRIP | SID255355127 | -0.32 | 5406 | inactive |
| TMEM131L | SID255356096 | 2.1 | 6347 | active |
| NPPB | SID255351288 | 0.31 | 5696 | inactive |
| DHDH | SID255357013 | -0.26 | 4702 | inactive |
| KRTAP8-1 | SID255364956 | -0.21 | 5097 | inactive |
| OR2Y1 | SID255362958 | -1.96 | 4110 | inactive |
| INTS5 | SID255360817 | -0.23 | 5668 | inactive |
| STAT6 | SID255352667 | 0.39 | 5780 | inactive |
| CCL24 | SID255352338 | -1.06 | 4764 | inactive |
| BPI | SID255348575 | 0.44 | 5119 | inactive |
| UGT3A1 | SID255362953 | -2.21 | 3779 | active |
| TMEM230 | SID255357112 | 0.14 | 3762 | inactive |
| SLC25A19 | SID255359704 | -0.7 | 5457 | inactive |
| AK8 | SID255363649 | 0.46 | 7002 | inactive |
| STH | SID255364404 | 1.36 | 5883 | inactive |
| ST3GAL2 | SID255352419 | -0.39 | 6126 | inactive |
| ABHD12B | SID255363246 | 0.26 | 5046 | inactive |
| MYO3B | SID255363103 | -1.69 | 4836 | inactive |
| ALDH9A1 | SID255348266 | -1.33 | 4428 | inactive |
| PPP4R2 | SID255363517 | 0.22 | 7067 | inactive |
| ABCA2 | SID255348120 | -3.12 | 4668 | active |
| IP6K1 | SID255354572 | 0.08 | 3842 | inactive |
| OR10C1 | SID255365969 | 0.34 | 4904 | inactive |
| PLIN3 | SID255354913 | 0.06 | 4127 | inactive |
| GSDMA | SID255364740 | 0.95 | 5967 | inactive |
| PLA2G2D | SID255356757 | -2.23 | 3904 | active |
| SLC26A5 | SID255365379 | -0.94 | 2796 | inactive |
| ARMC7 | SID255360349 | -0.56 | 6288 | inactive |
| SOX8 | SID255357286 | 0.64 | 4855 | inactive |
| ZNF132 | SID255353233 | -2.36 | 3810 | active |
| RHOU | SID255359629 | 0.29 | 6234 | inactive |
| AP3S1 | SID255348946 | 0.3 | 5704 | inactive |
| LDOC1 | SID255356386 | -0.07 | 5295 | inactive |
| DNAAF1 | SID255362592 | 0.02 | 7030 | inactive |
| PLCH2 | SID255354443 | -0.78 | 5093 | inactive |
| ABCC4 | SID255354943 | 1.03 | 5761 | inactive |
| CCNDBP1 | SID255356343 | -0.52 | 6094 | inactive |
| ZDHHC20 | SID255364433 | -0.71 | 5635 | inactive |
| SERPINA6 | SID255348718 | -1.29 | 4995 | inactive |
| SMAD3 | SID255350836 | 0.08 | 5320 | inactive |
| PNPLA6 | SID255355436 | 0.46 | 5438 | inactive |
| FARSB | SID255354773 | -0.55 | 6076 | inactive |
| IFNA13 | SID255350408 | 0.88 | 6886 | inactive |
| LDB2 | SID255354016 | -0.72 | 6446 | inactive |
| KLHL36 | SID255360464 | 1.41 | 5648 | inactive |
| TGM4 | SID255352846 | -0.16 | 5918 | inactive |
| XDH | SID255353150 | 0.8 | 5930 | inactive |
| RET | SID255352093 | -4.25 | 3304 | active |
| GP2 | SID255349968 | -1.83 | 5398 | inactive |
| ERN1 | SID255349555 | 0.47 | 6154 | inactive |
| ARID1B | SID255359419 | -1.64 | 5798 | inactive |
| CDADC1 | SID255360910 | -3.63 | 2956 | inactive |
| WBP2 | SID255356330 | -1.01 | 7177 | inactive |

Quoted from above, 8 entries:
| gene | PubChem SID | migration robust z-score | nuclei per well, duplicate mean | Call |
| --- | --- | --- | --- | --- |
| SOX8 | SID255357286 | 0.64 | 4855 | inactive |
| ZNF132 | SID255353233 | -2.36 | 3810 | active |
| RHOU | SID255359629 | 0.29 | 6234 | inactive |
| AP3S1 | SID255348946 | 0.3 | 5704 | inactive |
| LDOC1 | SID255356386 | -0.07 | 5295 | inactive |
| DNAAF1 | SID255362592 | 0.02 | 7030 | inactive |
| PLCH2 | SID255354443 | -0.78 | 5093 | inactive |
| ABCC4 | SID255354943 | 1.03 | 5761 | inactive |
